Measured values taken from the supplement of paper PMC11348887.
Where a name gives a salt, the structure may show the parent alone. The list shows a part of the results. Most values lie at the level of the controls, where differences are scatter. Where a SMILES comes first, the peptide text is derived from it.

The compounds below were run on hPSC-derived cortical neurons (WA09) (assay: KCl-induced FOS+/EGR-1+ double-positive nuclei fraction z-score (KCl minus unstimulated); higher = stronger activity-induced IEG response). Settings: 5 µM; treatment: days 7-14 after plating, readout day 21.

| SMILES | KCl-induced FOS+/EGR-1+ double-positive nuclei fraction z-score |
| --- | --- |
| C=C1CC[C@@H]2[C@](C)(CO)[C@H](O)CC[C@@]2(C)[C@@H]1C/C=C1/C(=O)OC[C@H]1O [Andrographolide] | -0.731 |
| CCC(=O)O[C@@H](O[P@](=O)(CCCCc1ccccc1)CC(=O)N1C[C@H](C2CCCCC2)C[C@H]1C(=O)O)C(C)C [Fosinopril Sodium] | -0.0563 |
| Cc1onc(-c2c(Cl)cccc2Cl)c1C(=O)N[C@@H]1C(=O)N2[C@@H]1SC(C)(C)[C@@H]2C(=O)O [Dicloxacillin Sodium] | -1.3 |
| CCOc1cc(C(C)(C)C)ccc1C1=N[C@@](C)(c2ccc(Cl)cc2)[C@@](C)(c2ccc(Cl)cc2)N1C(=O)N1CCN(CCCS(C)(=O)=O)CC1 | -0.383 |
| CN1CCC(Nc2nc(Nc3ccc(Oc4ccccc4)cc3)c3c(=O)[nH]cc(Br)c3n2)CC1 | 1.78 |
| Oc1c(I)cc(I)c2cccnc12 [Diiodohydroxyquinoline] | 2.39 |
| O=C1OC(CN2CCOCC2)CN1/N=C/c1ccc([N+](=O)[O-])o1 (stereo not given) [Furaltadone HCl] | -0.155 |
| Cc1cccc(C)c1NC(=O)C1CCCCN1C (stereo not given) [Mepivacaine HCl] | 0.246 |
| CC1(C)[C@H](C(=O)O)N2C(=O)C[C@H]2S1(=O)=O [Sulbactam sodium] | 0.271 |
| COc1c(C)c(C(=O)c2ccc(N)c(C(=O)O)c2)n2ccccc12 | 2.35 |
| COc1ccc2[nH]c([S+]([O-])Cc3ncc(C)c(OC)c3C)nc2c1 (stereo not given) [Omeprazole] | -0.888 |
| O=C1O[C@H](CO)[C@@H](O)[C@H](O)[C@H]1O [Gluconolactone] | 0.153 |
| O=C(O)/C=C/c1ccc(Cn2ccnc2)cc1 [Ozagrel HCl] | -0.195 |
| CN1CCN(c2cccc(Nc3nc4c(-c5ccc(S(C)(=O)=O)cc5)cccn4n3)c2)CC1 | -0.0569 |
| CC(C)C[C@H](NC(=O)[C@H](Cc1ccccc1)NC(=O)c1cnccn1)B(O)O [Bortezomib (PS-341)] | 1.32 |
| CN1CCN(c2ccc(Nc3ncc4cc(C#N)c(=O)n(C5CCCC5)c4n3)cc2)CC1 | -0.586 |
| O=S(=O)(O)CCCS(=O)(=O)O [Eprodisate disodium] | 1.6 |
| CCCCCCCCCCCCCCCCn1cc[n+](Cc2ccccc2)c1C | -0.164 |
| C[C@@H](CN1CC(=O)NC(=O)C1)N1CC(=O)NC(=O)C1 [Dexrazoxane HCl (ICRF-187_ ADR-529)] | 0.396 |
| CO[C@H]1/C=C/O[C@@]2(C)Oc3c(C)c(O)c4c(O)c(c(/C=N/N5CCN(C)CC5)c(O)c4c3C2=O)NC(=O)/C(C)=C\C=C\[C@H](C)[C@H](O)[C@@H](C)[C@@H](O)[C@@H](C)[C@H](OC(C)=O)[C@@H]1C [Rifampin] | -1.58 |

Pulled by compound from above:

| SMILES | KCl-induced FOS+/EGR-1+ double-positive nuclei fraction z-score |
| --- | --- |
| O=C1OC(CN2CCOCC2)CN1/N=C/c1ccc([N+](=O)[O-])o1 (stereo not given) [Furaltadone HCl] | -0.155 |
| COc1c(C)c(C(=O)c2ccc(N)c(C(=O)O)c2)n2ccccc12 | 2.35 |

The listing continues.

| SMILES | KCl-induced FOS+/EGR-1+ double-positive nuclei fraction z-score |
| --- | --- |
| CC1(C)O[C@@H]2C[C@H]3[C@@H]4CCC5=CC(=O)CC[C@]5(C)[C@@]4(F)[C@@H](O)C[C@]3(C)[C@]2(C(=O)CCl)O1 [Halcinonide] | 0.0819 |
| Nc1cccc(-c2cc3c(Oc4cccc(O)c4)ncnc3[nH]2)c1 | 1.67 |
| Nc1ccc(C(=O)Nc2cccc(-c3nc(N4CCOCC4)c4oc5ncccc5c4n3)c2)cn1 | -0.119 |
| CN1CCN(C2=Nc3ccccc3Oc3ccc(Cl)cc32)CC1 [Loxapine Succinate] | -0.713 |
| C[C@H]1[C@H](C)CC[C@]2(C(=O)O)CC[C@]3(C)C(=CC[C@@H]4[C@@]5(C)CC[C@H](O)C(C)(C)[C@@H]5CC[C@]43C)[C@H]12 [Ursolic Acid] | -0.542 |
| COc1cc(O)c(CC=C(C)C)c(O)c1C(=O)/C=C/c1ccc(O)cc1 [Xanthohumol] | -0.848 |
| CC(C)NC[C@@H](C(=O)N1CCN(c2ncnc3c2[C@H](C)C[C@H]3O)CC1)c1ccc(Cl)cc1 | -1.02 |
| OCc1ccccc1 [Benzyl alcohol] | -0.472 |
| NC(=O)c1ncn([C@@H]2O[C@H](CO)[C@@H](O)[C@H]2O)c1O [Mizoribine] | 0.257 |
| CC(C)(S)[C@@H](N)C(=O)O [Penicillamine] | 2.71 |
| CN(C)CC[C@H](CSc1ccccc1)Nc1ccc(S(=O)(=O)NC(=O)c2ccc(N3CCN(Cc4ccccc4-c4ccc(Cl)cc4)CC3)cc2)cc1[N+](=O)[O-] | 1.3 |
| COCCOc1nc(-c2ccc(Cl)c(Cl)c2)n(-c2ccc(NC(=O)CCl)cc2)n1 [MI-2 (MALT1 inhibitor)] | 1.29 |
| O=C(CCCN1CCN(c2ccccn2)CC1)c1ccc(F)cc1 [Azaperone] | 1.15 |
| O=C(/C=C/c1ccc(CN(CCO)CCc2c[nH]c3ccccc23)cc1)NO [LAQ824 (Dacinostat)] | -0.399 |
| CC(C)CC(NC(=O)C(Cc1ccccc1)NC(=O)C(CCC(N)=O)NC(=O)C(Cc1ccc(O)cc1)NC(=O)C(C)NC(=O)CNC(=O)C(CCCCN)NC(=O)C(Cc1c[nH]c2ccccc12)NC(=O)C(NC(=O)C(Cc1c[nH]c2ccccc12)NC(=O)C(CCCCN)NC(=O)CNC(=O)C(CC(N)=O)NC(=O)C(CCC(=O)O)NC(=O)C(Cc1c[nH]c2ccccc12)NC(=O)C(NC(=O)C(Cc1c[nH]c2ccccc12)NC(=O)C(CO)NC(=O)CNC(=O)C1CCCN1C(=O)C(Cc1c[nH]c2ccccc12)NC(=O)C(CCC(N)=O)NC(=O)C(Cc1ccccc1)NC(=O)CNC(=O)C(N)Cc1c[nH]cn1)C(C)O)C(C)O)C(=O)NC(CCCCN)C(=O)NCC(=O)NCC(=O)NCC(=O)NCC(=O)NC(CO)C(=O)NC(CCCNC(=N)N)C(=O)NC(CCCNC(=N)N)C(=O)NC(CCCNC(=N)N)C(=O)NC(CCCNC(=N)N)C(=O)NC(CCCNC(=N)N)C(=O)NC(CCCNC(=N)N)C(=O)NC(CCCNC(=N)N)C(=O)NC(CCCNC(=N)N)C(=O)NC(CCCNC(=N)N)C(=O)O (stereo not given) (H-HGFQWPGSWTWENGKWTWKGAYQFLKGGGGSRRRRRRRRR-OH; configuration not given here) | 0.09 |
| O=C(O)P(=O)(O)O [Foscarnet Sodium] | 0.463 |
| COc1nc(-c2ccc3c(c2)OCO3)n(-c2ccc(NC(=O)CSc3ccccc3)cc2)n1 [SecinH3] | -0.195 |
| NCCS [Cysteamine HCl] | -1.54 |
| CN[C@@H]1[C@H](O)[C@H](NC)[C@H]2O[C@@]3(O)C(=O)C[C@@H](C)O[C@H]3O[C@@H]2[C@H]1O [Spectinomycin HCl] | 2.02 |
| CN(C)c1ccc2nc3ccc(=[N+](C)C)cc-3sc2c1 [Methylene Blue] | 1.03 |
